The target in one assay is T1, EGFP-Vangl2 (mouse) (UniProt Q91ZD4).
T1 sequence: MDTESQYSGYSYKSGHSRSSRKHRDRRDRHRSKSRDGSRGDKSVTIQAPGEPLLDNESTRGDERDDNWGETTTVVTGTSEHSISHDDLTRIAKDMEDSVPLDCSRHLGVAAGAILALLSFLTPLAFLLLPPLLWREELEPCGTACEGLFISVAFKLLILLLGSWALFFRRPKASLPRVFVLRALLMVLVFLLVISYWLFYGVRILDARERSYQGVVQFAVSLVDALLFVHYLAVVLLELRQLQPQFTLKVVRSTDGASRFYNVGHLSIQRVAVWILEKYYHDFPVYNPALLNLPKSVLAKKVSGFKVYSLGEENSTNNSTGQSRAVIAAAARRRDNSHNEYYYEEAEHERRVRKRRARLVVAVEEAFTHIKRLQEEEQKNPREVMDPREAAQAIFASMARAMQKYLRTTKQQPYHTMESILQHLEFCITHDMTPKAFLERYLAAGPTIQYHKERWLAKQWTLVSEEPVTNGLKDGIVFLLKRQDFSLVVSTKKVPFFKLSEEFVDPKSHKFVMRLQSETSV
The experiment in a line: co-IP; anti-GFP antibody on protein G beads with lysates of co-electroporated MDCK cells (25 mM Tris pH 7.4, 1% Triton X-100, 50 mM NaCl, protease inhibitors); absorbed at 4°C; HA blot of the precipitate.

The next assay concerns the target T2, EGFP-Vangl1 (mouse) (UniProt Q80Z96).
T2 sequence: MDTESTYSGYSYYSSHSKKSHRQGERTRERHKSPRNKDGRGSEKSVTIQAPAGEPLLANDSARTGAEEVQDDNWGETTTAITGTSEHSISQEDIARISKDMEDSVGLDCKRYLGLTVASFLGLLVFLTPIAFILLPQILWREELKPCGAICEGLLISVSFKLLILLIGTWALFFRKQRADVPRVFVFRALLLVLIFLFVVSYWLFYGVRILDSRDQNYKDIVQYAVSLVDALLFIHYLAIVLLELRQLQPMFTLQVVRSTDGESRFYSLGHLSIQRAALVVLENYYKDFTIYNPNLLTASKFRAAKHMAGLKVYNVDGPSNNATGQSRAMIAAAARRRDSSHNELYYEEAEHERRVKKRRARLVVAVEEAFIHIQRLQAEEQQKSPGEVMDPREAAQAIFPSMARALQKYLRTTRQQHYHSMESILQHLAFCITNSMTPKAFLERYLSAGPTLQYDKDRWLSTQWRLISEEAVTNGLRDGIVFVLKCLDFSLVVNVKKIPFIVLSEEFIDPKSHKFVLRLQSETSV
The description is as above.

Numbering of substitutions follows the chain as printed. Names may count otherwise. These are yes or no findings as the source states them, for the method shown. Binding seen in cells or lysates may run through a third protein. Some binding calls cover weakened binding; strength is not graded here. Tags and fused reporters may be left off the sequences shown.

B1: 3XHA-Vangl2 (protein, UniProt Q91ZD4 1-521)
chain: T1 sequence
On to B1, for which the binding entry with EGFP-Vangl2 (mouse) and with EGFP-Vangl1 (mouse) was “binds” throughout.

B2: 3XHA-Vangl2^S464N (protein, UniProt Q91ZD4 1-521)
chain: T1 sequence with S464N
B2: the binding result with EGFP-Vangl2 (mouse) and with EGFP-Vangl1 (mouse) was “binds” throughout.

The record behind these values is paper PMC3282788.
